Patent US20170081363 (published 2017)

Experiment: general procedure: solution-phase peptide synthesis; EDC, HOBT
Details: whole synthesis, analytical HPLC, Zorbax Eclipse XDB-C18, UV detection @ 210 and 254 nm, scale 1 g

For “protected Dmt-D-Arg-Phe-Lys-NH2 tetramer”, the “purity (crude or final not stated)” value was 90%.
